By UniProt entry, the sequences of proteins in these tests, tags left out.
UniProt Q8MI13, whole entry: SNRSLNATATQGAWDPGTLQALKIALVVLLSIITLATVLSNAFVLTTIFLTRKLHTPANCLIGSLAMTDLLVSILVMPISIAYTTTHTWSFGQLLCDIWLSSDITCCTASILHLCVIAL
UniProt P28564, whole entry: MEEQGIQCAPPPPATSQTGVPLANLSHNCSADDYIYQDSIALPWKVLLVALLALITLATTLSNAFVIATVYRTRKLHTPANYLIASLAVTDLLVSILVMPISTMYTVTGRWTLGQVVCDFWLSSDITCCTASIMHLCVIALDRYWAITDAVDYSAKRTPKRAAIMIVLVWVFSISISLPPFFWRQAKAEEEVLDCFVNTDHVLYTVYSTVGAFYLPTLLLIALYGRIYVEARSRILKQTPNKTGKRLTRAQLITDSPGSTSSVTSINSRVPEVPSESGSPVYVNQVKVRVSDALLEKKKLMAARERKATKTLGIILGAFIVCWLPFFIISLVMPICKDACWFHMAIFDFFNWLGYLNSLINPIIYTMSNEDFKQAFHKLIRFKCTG

In BindingDB's records for doi:10.1016/0893-133X(94)00129-N (Eli Lilly, 1996):

Columns and labels:
[1] = target: 5-hydroxytryptamine 1D receptor (Bos taurus, UniProt Q8MI13)
[2] = target: 5-hydroxytryptamine receptor 1B (Rattus norvegicus, UniProt P28564)
[3] = target: T1, 5-hydroxytryptamine receptor 3A (Rattus norvegicus, UniProt P35563)
T1 sequence (P35563 whole entry): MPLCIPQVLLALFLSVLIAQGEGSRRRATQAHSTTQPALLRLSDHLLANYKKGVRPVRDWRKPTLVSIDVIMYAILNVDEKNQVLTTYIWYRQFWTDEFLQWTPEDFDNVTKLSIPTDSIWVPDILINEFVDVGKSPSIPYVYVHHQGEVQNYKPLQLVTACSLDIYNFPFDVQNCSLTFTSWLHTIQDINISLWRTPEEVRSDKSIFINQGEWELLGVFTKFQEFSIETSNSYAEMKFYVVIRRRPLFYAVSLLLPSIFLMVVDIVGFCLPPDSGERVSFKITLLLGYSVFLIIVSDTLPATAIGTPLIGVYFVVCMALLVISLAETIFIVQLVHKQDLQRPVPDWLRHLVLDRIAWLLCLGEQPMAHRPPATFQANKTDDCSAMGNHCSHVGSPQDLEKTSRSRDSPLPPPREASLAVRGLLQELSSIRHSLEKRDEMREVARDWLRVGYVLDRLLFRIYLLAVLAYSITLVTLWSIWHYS

SMILES: OCCOCCN1CCN(C2=Nc3ccccc3Sc3ccccc32)CC1 [2-[2-(4-dibenzo[b,f][1,4]thiazepin-11-ylpiperazin-1-yl)ethoxy]ethanol]
- Ki [1]: 6.22 µM
- Ki [2]: 5.4 µM
- Ki [3]: 0.17 µM
